Measurements reported in PubChem BioAssay AID504791 (Drosophila RNAi Screening Center, 2011).
The screen tested about 23,000 reagents; shown is a random part of those that have a named target and a result. Of all reagents, 199 (0.86%) are marked active. 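Plate-scaled ratios behind the calls are not deposited; printed light signals are raw; many rows marked increased or decreased are still called inactive.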 Entries without a mark were called inactive. A plus sign joins genes that one reagent is predicted to hit. The record does not give: the direction of the score.

Aim: 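Genes whose knock-down strengthens or weakens small-RNA reporter silencing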 (primary screen)
System: Drosophila S2-derived reporter cells
Knock-down reagent: long dsRNA against Drosophila genes, about 150-250 ng dsRNA per well (siRNA assay); about 80-120 ng (miRNA assay)
Timing: about 5 days (siRNA assay); about 4 days (miRNA assay)
Challenge: copper sulfate induction of reporters: 25 µM (siRNA assay); 200 mM stated (miRNA assay), 1-2 days before reading
Measurement: 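Dual luciferase assay: Renilla to firefly signal ratio in each well, scaled to the mean ratio of its plate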
Hit rule: 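a well was a first-pass pick when its plate-scaled ratio rose above 1.5 (siRNA assay) or 1.6 (miRNA assay), or dropped below 0.6; a gene counted only if two separate dsRNAs agreed on retest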

Against RyR (GeneID 49090) [DRSC07543] the deposit lists stable assay Renilla, run 1 (luminescence) = 6850; stable assay firefly, run 1 (luminescence) = 4.22e5.
With knock-down of GalT1 (GeneID 36279) [DRSC22238] the results were stable assay Renilla, run 1 (luminescence) = 9451; stable assay firefly, run 1 (luminescence) = 6.05e5.
Silencing of f-cup (GeneID 41677) [DRSC14139] came out at: stable assay Renilla, run 1 (luminescence) = 6470; stable assay firefly, run 1 (luminescence) = 4.07e5.
Knock-down of CG15731 (GeneID 32194) [DRSC19698] came out at: stable assay Renilla, run 1 (luminescence) = 5416; stable assay firefly, run 1 (luminescence) = 4.29e5.
Silencing of CG15731 (GeneID 32194) [DRSC21820] gave: stable assay Renilla, run 1 (luminescence) = 10831; stable assay firefly, run 1 (luminescence) = 4.82e5.
With knock-down of CG32376 (GeneID 318002) [DRSC22754], the record shows stable assay Renilla, run 1 (luminescence) = 4435; stable assay firefly, run 1 (luminescence) = 3.61e5.
CG8664 (GeneID 32719) [DRSC20116] scored stable assay Renilla, run 1 (luminescence) = 5546; stable assay firefly, run 1 (luminescence) = 4.23e5.
Against CG4404 (GeneID 32241) [DRSC19897] the deposit lists stable assay Renilla, run 1 (luminescence) = 5415; stable assay firefly, run 1 (luminescence) = 3.85e5.
CG9132 (GeneID 2768881) [DRSC20159] gave stable assay Renilla, run 1 (luminescence) = 7406; stable assay firefly, run 1 (luminescence) = 4.92e5.
After knock-down of CG34033 (GeneID 3885602) [DRSC05190], the screen gave stable assay Renilla, run 1 (luminescence) = 4484; stable assay firefly, run 1 (luminescence) = 4.37e5.
Silencing of CG5235 (GeneID 39758) [DRSC10494] gave: stable assay Renilla, run 1 (luminescence) = 7847; stable assay firefly, run 1 (luminescence) = 3.30e5.
For snoRNA:U31:54Ec + snoRNA:snR38:54Eb + snoRNA:U27:54Eb + 8 more [DRSC06458] the deposit lists stable assay Renilla, run 1 (luminescence) = 5539; stable assay firefly, run 1 (luminescence) = 3.11e5.
With knock-down of NFAT (GeneID 32321) [DRSC18991] the results were stable assay Renilla, run 1 (luminescence) = 4879; stable assay firefly, run 1 (luminescence) = 4.31e5.
Knock-down of NFAT (GeneID 32321) [DRSC19393] came out at: stable assay Renilla, run 1 (luminescence) = 5834; stable assay firefly, run 1 (luminescence) = 6.35e5.
With knock-down of Dcr-1 (GeneID 42693) [DRSC15646], the record shows stable assay Renilla, run 1 (luminescence) = 7887; stable assay firefly, run 1 (luminescence) = 3.42e5.
mbm (GeneID 33194) [DRSC00319] gave stable assay Renilla, run 1 (luminescence) = 10996; stable assay firefly, run 1 (luminescence) = 5.25e5.
Knock-down of Dtd (GeneID 41371) [DRSC15362] came out at: stable assay Renilla, run 1 (luminescence) = 5134; stable assay firefly, run 1 (luminescence) = 4.29e5.
CG5697 (GeneID 42483) [DRSC15858] gave stable assay Renilla, run 1 (luminescence) = 7346; stable assay firefly, run 1 (luminescence) = 3.50e5.

Sorted by “stable assay firefly, run 1 (luminescence)” (highest first): 4 of the entries above.
NFAT (GeneID 32321) [DRSC19393] | stable assay Renilla, run 1 (luminescence) = 5834; stable assay firefly, run 1 (luminescence) = 6.35e5
mbm (GeneID 33194) [DRSC00319] | stable assay Renilla, run 1 (luminescence) = 10996; stable assay firefly, run 1 (luminescence) = 5.25e5
Dtd (GeneID 41371) [DRSC15362] | stable assay Renilla, run 1 (luminescence) = 5134; stable assay firefly, run 1 (luminescence) = 4.29e5
Dcr-1 (GeneID 42693) [DRSC15646] | stable assay Renilla, run 1 (luminescence) = 7887; stable assay firefly, run 1 (luminescence) = 3.42e5

The list goes on:
Knock-down of CG32544 (GeneID 318082) [DRSC20033] resulted in: stable assay Renilla, run 1 (luminescence) = 5964; stable assay firefly, run 1 (luminescence) = 4.68e5.
Fkbp12 (GeneID 37214) [DRSC07425] gave stable assay Renilla, run 1 (luminescence) = 6226; stable assay firefly, run 1 (luminescence) = 3.72e5.
Against CG14207 (GeneID 32955) [DRSC19562], the entry reads stable siRNA reporter change reporter ratio lowered past the hit cutoff; stable assay Renilla, run 1 (luminescence) = 7299; stable assay firefly, run 1 (luminescence) = 7.25e5.
CG14207 (GeneID 32955) [DRSC19563] scored stable assay Renilla, run 1 (luminescence) = 6439; stable assay firefly, run 1 (luminescence) = 4.18e5.
Depletion of CG15458 (GeneID 50124) [DRSC20529] came out at: stable assay Renilla, run 1 (luminescence) = 6778; stable assay firefly, run 1 (luminescence) = 3.75e5.
Against CG15705 (GeneID 36815) [DRSC06576] the deposit lists stable assay Renilla, run 1 (luminescence) = 7696; stable assay firefly, run 1 (luminescence) = 4.49e5.
Against CG4822 (GeneID 33170) [DRSC00669] the deposit lists stable assay Renilla, run 1 (luminescence) = 10718; stable assay firefly, run 1 (luminescence) = 4.51e5.
For CG10332 (retired record) + IM18 [DRSC04064], the entry reads stable assay Renilla, run 1 (luminescence) = 6536; stable assay firefly, run 1 (luminescence) = 3.76e5.
Against slmb (GeneID 42504) [DRSC17056], the entry reads stable assay Renilla, run 1 (luminescence) = 10084; stable assay firefly, run 1 (luminescence) = 5.11e5.
For CG30280 (GeneID 37522) [DRSC21761], the values are stable assay Renilla, run 1 (luminescence) = 8943; stable assay firefly, run 1 (luminescence) = 4.45e5.
